PubChem BioAssay AID1259254 – NCATS, 2017
Shown is a random part of about 59,000 reagents tested. About 1,550 of them (2.6%) count as active. 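G2 share is only a proxy for re-replication; each gene was hit by three separate siRNAs, and active genes were retested.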 Reagents against one gene are numbered here. Further read-outs or replicates are left out here. Reagent sequences are not shown. Not given: the amount of reagent.

Aim: 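Genome-wide screen for genes that prevent DNA re-replication in cancer cells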 (primary screen)
Cells: human HCT116 colorectal cancer cells
Reagent: single siRNA against human genes
Duration: 3 days
Measurement: 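Nuclei stained with Hoechst and imaged; cell-cycle phase assigned by DNA content; G2 share scaled per plate, non-targeting siRNA 0%, GMNN siRNA 100%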
Scale: G2 robust z-score and G2 cells, % of GMNN control: higher = more G2 cells, more excess DNA replication
Hit rule: 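An siRNA counts as active if its G2 robust z-score lies at least 5 MADs above the screen median; here such calls match roughly 38% of GMNN control or more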

{"Gene": "SRC (GeneID 6714)", "reagent no.": 1, "G2 robust z-score": -1.07, "G2 cells, % of GMNN control": -4.55, "activity call": "inactive"}
{"Gene": "SRC (GeneID 6714)", "reagent no.": 2, "G2 robust z-score": 4.77, "G2 cells, % of GMNN control": 36.5, "activity call": "inactive"}
{"Gene": "SRC (GeneID 6714)", "reagent no.": 3, "G2 robust z-score": 0.394, "G2 cells, % of GMNN control": 5.74, "activity call": "inactive"}
{"Gene": "E2F4 (GeneID 1874)", "reagent no.": 1, "G2 robust z-score": -0.83, "G2 cells, % of GMNN control": -2.87, "activity call": "inactive"}
{"Gene": "E2F4 (GeneID 1874)", "reagent no.": 2, "G2 robust z-score": 0.548, "G2 cells, % of GMNN control": 6.82, "activity call": "inactive"}
{"Gene": "E2F4 (GeneID 1874)", "reagent no.": 3, "G2 robust z-score": -0.588, "G2 cells, % of GMNN control": -1.17, "activity call": "inactive"}
{"Gene": "GPRC5D (GeneID 55507)", "reagent no.": 1, "G2 robust z-score": -0.133, "G2 cells, % of GMNN control": 2.03, "activity call": "inactive"}
{"Gene": "GPRC5D (GeneID 55507)", "reagent no.": 2, "G2 robust z-score": 0.105, "G2 cells, % of GMNN control": 3.7, "activity call": "inactive"}
{"Gene": "GPRC5D (GeneID 55507)", "reagent no.": 3, "G2 robust z-score": -1.28, "G2 cells, % of GMNN control": -6, "activity call": "inactive"}
{"Gene": "EXOC7 (GeneID 23265)", "reagent no.": 1, "G2 robust z-score": -0.86, "G2 cells, % of GMNN control": -3.08, "activity call": "inactive"}
{"Gene": "EXOC7 (GeneID 23265)", "reagent no.": 2, "G2 robust z-score": 0.118, "G2 cells, % of GMNN control": 3.8, "activity call": "inactive"}
{"Gene": "EXOC7 (GeneID 23265)", "reagent no.": 3, "G2 robust z-score": 0.74, "G2 cells, % of GMNN control": 8.17, "activity call": "inactive"}
{"Gene": "RFXANK (GeneID 8625)", "reagent no.": 1, "G2 robust z-score": -0.165, "G2 cells, % of GMNN control": 1.81, "activity call": "inactive"}
{"Gene": "RFXANK (GeneID 8625)", "reagent no.": 2, "G2 robust z-score": -1.18, "G2 cells, % of GMNN control": -5.34, "activity call": "inactive"}
{"Gene": "RFXANK (GeneID 8625)", "reagent no.": 3, "G2 robust z-score": 0.0164, "G2 cells, % of GMNN control": 3.08, "activity call": "inactive"}
{"Gene": "HLF (GeneID 3131)", "reagent no.": 1, "G2 robust z-score": 7.07, "G2 cells, % of GMNN control": 52.7, "activity call": "active"}
{"Gene": "HLF (GeneID 3131)", "reagent no.": 2, "G2 robust z-score": 0.375, "G2 cells, % of GMNN control": 5.61, "activity call": "inactive"}
{"Gene": "HLF (GeneID 3131)", "reagent no.": 3, "G2 robust z-score": -0.521, "G2 cells, % of GMNN control": -0.698, "activity call": "inactive"}
{"Gene": "PRDM2 (GeneID 7799)", "reagent no.": 1, "G2 robust z-score": 0.233, "G2 cells, % of GMNN control": 4.61, "activity call": "inactive"}
{"Gene": "PRDM2 (GeneID 7799)", "reagent no.": 2, "G2 robust z-score": -0.714, "G2 cells, % of GMNN control": -2.06, "activity call": "inactive"}
{"Gene": "PRDM2 (GeneID 7799)", "reagent no.": 3, "G2 robust z-score": -0.781, "G2 cells, % of GMNN control": -2.52, "activity call": "inactive"}
{"Gene": "PCDHGA11 (GeneID 56105)", "reagent no.": 1, "G2 robust z-score": -0.342, "G2 cells, % of GMNN control": 0.564, "activity call": "inactive"}
{"Gene": "PCDHGA11 (GeneID 56105)", "reagent no.": 2, "G2 robust z-score": 0.228, "G2 cells, % of GMNN control": 4.57, "activity call": "inactive"}
{"Gene": "PCDHGA11 (GeneID 56105)", "reagent no.": 3, "G2 robust z-score": -0.903, "G2 cells, % of GMNN control": -3.38, "activity call": "inactive"}

Sorted by “G2 robust z-score” (ascending): 4 of the entries above
{"Gene": "E2F4 (GeneID 1874)", "reagent no.": 1, "G2 robust z-score": -0.83, "G2 cells, % of GMNN control": -2.87, "activity call": "inactive"}
{"Gene": "SRC (GeneID 6714)", "reagent no.": 3, "G2 robust z-score": 0.394, "G2 cells, % of GMNN control": 5.74, "activity call": "inactive"}
{"Gene": "E2F4 (GeneID 1874)", "reagent no.": 2, "G2 robust z-score": 0.548, "G2 cells, % of GMNN control": 6.82, "activity call": "inactive"}
{"Gene": "SRC (GeneID 6714)", "reagent no.": 2, "G2 robust z-score": 4.77, "G2 cells, % of GMNN control": 36.5, "activity call": "inactive"}
